± gives the standard deviation of the averaged measurements. The list shows a part of the results.
Compound: Nc1nc2c(ncn2[C@@H]2O[C@H](COP(=O)(O)OP(=O)(O)OP(=O)(O)O)[C@@H](O)[C@H]2O)c(=O)[nH]1 [guanosine triphosphate]
Experiment: NP40-soluble protein abundance relative to vehicle (solubility fold change) (ratio); higher = more soluble protein in presence of GTP
Summary of the method: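 Each value is a fold change relative to the detergent-processed vehicle, calculated per replicate from vsn-normalised intensities. Jurkat crude lysate received eight concentrations (0.1 to 10 mM) for 10 min at room temperature and 3 min at 37 °C, then was solubilised in 0.8% NP40 with benzonase (60 min, 4 °C). The ultracentrifuged supernatant was TMT-labelled and run by LC-MS/MS in three independent experiments.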

The chains behind the UniProt entries cited, without tags or fusion partners. Where a name states a change or a piece, a line headed by the entry shows the natural chain unless it says otherwise.
UniProt A1L0T0: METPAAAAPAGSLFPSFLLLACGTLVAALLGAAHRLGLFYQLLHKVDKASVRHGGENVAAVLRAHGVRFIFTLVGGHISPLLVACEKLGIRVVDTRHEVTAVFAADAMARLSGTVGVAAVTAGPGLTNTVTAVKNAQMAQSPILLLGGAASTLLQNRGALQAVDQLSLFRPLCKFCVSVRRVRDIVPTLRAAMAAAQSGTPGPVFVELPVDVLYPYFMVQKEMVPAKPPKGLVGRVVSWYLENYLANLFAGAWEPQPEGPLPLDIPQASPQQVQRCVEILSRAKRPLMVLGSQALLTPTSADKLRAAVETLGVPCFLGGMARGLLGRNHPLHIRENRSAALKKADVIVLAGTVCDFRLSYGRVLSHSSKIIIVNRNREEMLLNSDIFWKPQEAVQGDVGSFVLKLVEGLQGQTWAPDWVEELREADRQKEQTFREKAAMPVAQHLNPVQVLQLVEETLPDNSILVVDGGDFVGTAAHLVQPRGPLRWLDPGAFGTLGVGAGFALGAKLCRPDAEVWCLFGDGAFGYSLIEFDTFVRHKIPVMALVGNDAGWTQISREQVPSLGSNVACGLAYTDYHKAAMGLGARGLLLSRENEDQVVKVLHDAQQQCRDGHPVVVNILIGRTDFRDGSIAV
UniProt Q7Z6Z7, whole entry: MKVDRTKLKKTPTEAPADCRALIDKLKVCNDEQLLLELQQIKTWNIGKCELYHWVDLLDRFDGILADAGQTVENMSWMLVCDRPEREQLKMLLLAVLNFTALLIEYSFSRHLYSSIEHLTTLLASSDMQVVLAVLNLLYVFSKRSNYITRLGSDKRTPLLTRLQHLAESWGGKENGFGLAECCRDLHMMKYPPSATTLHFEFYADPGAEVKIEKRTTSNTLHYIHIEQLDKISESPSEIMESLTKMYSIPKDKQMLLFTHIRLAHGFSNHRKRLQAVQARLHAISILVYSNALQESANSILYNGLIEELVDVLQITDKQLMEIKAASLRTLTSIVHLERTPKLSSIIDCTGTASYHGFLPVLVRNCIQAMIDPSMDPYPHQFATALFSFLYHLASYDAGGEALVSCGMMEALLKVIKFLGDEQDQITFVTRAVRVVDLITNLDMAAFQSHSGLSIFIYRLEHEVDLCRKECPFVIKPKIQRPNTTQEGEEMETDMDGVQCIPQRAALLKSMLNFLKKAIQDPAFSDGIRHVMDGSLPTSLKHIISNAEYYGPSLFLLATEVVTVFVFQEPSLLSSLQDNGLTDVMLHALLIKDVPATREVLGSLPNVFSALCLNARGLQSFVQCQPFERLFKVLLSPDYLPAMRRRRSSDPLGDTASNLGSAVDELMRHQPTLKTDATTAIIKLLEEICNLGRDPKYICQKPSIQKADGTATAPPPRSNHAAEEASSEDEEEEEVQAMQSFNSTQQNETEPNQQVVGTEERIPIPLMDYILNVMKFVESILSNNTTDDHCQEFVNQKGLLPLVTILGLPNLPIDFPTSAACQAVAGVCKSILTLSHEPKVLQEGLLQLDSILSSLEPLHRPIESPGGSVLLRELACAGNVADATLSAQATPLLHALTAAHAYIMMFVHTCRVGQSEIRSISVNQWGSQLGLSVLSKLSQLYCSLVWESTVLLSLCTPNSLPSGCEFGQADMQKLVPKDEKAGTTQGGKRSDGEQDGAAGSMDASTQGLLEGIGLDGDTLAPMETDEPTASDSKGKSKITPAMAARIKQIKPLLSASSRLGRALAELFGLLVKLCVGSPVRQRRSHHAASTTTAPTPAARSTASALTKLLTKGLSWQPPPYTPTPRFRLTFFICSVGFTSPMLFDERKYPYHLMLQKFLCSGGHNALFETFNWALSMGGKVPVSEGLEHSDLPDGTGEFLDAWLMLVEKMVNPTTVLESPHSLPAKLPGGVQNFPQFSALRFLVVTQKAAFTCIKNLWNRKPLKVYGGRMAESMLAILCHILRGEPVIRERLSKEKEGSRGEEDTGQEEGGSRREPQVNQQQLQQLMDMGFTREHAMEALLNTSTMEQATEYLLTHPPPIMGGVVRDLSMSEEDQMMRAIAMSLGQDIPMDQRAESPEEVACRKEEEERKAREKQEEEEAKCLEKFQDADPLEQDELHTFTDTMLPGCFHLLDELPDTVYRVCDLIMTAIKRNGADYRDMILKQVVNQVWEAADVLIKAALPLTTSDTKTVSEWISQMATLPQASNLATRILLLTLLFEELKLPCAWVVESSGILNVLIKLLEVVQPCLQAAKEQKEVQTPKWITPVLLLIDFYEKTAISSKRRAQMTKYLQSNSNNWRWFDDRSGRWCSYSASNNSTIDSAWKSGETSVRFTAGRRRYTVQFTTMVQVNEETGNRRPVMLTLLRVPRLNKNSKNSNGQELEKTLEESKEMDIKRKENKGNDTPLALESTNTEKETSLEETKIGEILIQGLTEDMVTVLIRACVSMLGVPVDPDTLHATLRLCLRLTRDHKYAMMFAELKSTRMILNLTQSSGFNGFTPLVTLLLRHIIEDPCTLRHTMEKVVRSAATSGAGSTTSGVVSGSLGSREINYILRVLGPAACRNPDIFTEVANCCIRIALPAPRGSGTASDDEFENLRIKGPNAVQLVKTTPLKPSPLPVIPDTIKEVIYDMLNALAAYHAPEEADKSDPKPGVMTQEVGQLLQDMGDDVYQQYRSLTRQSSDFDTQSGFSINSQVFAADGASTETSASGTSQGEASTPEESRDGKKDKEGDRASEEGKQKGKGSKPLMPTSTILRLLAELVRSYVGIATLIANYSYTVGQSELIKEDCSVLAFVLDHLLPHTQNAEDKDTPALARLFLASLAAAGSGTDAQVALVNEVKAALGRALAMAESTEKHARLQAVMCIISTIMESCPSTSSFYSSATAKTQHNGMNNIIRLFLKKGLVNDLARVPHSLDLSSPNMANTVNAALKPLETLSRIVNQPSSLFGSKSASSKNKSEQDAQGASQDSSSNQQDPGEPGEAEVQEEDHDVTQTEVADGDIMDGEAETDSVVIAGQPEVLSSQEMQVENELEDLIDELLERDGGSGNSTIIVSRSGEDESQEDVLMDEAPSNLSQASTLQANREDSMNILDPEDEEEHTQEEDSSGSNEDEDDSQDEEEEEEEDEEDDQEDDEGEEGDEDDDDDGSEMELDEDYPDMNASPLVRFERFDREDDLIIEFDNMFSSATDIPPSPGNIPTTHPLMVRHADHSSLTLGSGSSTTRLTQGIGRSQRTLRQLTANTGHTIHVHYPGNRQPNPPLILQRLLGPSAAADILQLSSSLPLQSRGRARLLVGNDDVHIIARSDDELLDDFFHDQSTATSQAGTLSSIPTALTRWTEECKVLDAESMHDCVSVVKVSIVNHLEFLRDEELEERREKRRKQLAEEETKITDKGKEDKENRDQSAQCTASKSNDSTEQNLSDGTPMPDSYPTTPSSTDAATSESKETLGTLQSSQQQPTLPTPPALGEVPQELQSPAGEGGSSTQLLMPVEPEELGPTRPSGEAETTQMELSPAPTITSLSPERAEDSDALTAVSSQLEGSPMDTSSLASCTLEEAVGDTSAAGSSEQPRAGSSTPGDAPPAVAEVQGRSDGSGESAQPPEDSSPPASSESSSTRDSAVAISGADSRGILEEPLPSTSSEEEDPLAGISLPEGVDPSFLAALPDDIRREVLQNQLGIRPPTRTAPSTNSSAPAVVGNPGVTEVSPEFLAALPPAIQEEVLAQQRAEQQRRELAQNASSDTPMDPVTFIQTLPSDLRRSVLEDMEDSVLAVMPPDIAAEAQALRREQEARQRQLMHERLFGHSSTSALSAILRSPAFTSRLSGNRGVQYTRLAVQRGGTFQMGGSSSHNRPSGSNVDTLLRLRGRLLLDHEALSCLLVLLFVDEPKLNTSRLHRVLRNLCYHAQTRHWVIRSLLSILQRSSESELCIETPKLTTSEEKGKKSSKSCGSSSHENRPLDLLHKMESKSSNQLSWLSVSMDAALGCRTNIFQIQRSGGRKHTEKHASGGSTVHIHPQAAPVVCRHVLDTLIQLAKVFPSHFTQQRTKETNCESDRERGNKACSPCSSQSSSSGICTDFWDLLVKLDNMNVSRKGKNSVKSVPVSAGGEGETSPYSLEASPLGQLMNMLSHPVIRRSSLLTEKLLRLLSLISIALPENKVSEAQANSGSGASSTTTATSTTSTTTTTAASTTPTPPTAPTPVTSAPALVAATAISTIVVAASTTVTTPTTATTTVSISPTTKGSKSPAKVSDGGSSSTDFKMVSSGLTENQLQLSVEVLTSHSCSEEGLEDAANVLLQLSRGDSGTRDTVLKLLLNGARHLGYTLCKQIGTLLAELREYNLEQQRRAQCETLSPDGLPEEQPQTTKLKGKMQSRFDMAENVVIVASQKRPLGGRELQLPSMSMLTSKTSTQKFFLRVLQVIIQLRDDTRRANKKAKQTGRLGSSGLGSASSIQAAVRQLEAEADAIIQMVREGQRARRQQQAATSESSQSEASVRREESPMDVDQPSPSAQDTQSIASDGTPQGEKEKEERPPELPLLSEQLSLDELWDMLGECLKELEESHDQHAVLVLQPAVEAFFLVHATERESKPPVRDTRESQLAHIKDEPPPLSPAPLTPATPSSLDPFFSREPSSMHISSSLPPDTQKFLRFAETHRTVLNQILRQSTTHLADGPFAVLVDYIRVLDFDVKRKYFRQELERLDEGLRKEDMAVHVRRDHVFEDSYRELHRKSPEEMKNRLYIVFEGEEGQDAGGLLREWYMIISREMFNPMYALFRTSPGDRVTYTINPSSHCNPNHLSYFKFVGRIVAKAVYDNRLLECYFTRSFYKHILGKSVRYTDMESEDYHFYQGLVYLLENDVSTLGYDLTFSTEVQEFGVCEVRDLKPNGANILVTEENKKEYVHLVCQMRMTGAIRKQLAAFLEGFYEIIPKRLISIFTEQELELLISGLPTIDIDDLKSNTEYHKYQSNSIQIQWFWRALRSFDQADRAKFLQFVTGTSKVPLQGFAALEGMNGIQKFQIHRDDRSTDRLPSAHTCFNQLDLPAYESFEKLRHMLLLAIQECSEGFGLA
UniProt O14639: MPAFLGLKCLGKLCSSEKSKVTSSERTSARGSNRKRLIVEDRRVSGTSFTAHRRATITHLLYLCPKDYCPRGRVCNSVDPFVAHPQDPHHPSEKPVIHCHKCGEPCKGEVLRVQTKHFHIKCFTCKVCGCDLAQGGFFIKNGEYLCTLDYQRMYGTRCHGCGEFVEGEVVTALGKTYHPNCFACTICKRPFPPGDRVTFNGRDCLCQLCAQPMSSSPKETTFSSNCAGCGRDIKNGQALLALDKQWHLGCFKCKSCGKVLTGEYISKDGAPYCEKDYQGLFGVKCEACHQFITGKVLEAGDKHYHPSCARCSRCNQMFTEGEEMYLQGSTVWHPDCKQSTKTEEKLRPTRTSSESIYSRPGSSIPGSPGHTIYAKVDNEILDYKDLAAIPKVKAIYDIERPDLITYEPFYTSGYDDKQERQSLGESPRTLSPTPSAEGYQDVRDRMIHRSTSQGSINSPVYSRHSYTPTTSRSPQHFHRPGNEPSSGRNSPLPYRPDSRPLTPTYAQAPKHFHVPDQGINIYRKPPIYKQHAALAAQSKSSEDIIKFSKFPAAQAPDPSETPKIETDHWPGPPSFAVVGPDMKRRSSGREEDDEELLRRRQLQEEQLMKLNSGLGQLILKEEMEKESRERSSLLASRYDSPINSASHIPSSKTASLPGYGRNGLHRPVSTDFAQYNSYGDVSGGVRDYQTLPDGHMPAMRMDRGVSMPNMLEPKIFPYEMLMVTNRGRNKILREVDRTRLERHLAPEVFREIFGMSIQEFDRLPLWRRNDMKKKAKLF
UniProt Q13616, whole entry: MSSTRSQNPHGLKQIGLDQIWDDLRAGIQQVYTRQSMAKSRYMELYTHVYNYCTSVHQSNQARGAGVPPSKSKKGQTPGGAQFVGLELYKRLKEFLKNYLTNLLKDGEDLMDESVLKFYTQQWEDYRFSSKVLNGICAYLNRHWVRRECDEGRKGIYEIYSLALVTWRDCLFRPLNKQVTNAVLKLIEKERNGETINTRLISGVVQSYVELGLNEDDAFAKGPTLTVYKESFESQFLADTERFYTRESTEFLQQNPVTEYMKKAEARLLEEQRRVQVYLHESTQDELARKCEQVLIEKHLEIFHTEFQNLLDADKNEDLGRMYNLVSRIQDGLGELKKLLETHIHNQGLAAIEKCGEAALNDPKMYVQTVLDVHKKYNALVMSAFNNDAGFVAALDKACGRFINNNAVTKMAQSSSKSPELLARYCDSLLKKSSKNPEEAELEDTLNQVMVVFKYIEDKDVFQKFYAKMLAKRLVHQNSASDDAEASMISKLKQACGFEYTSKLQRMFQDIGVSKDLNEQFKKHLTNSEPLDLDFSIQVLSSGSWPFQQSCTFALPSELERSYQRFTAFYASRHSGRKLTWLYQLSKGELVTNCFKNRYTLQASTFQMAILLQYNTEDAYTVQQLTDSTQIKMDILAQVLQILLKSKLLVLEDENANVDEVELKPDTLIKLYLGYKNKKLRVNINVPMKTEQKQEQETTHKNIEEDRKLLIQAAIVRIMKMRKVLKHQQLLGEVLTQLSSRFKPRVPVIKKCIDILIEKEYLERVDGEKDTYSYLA

Target	NP40-soluble protein abundance (concentration: 0.1mM)	NP40-soluble protein abundance (concentration: 0.5mM)	NP40-soluble protein abundance (concentration: 1mM)	NP40-soluble protein abundance (concentration: 2mM)	NP40-soluble protein abundance (concentration: 4mM)	NP40-soluble protein abundance (concentration: 6mM)	NP40-soluble protein abundance (concentration: 8mM)	NP40-soluble protein abundance (concentration: 10mM)
A0A0A0MT23|A0A0A0MSZ1|J3KNR0 (UniProt P27448)	1.08 ± 0.038	1.1 ± 0.094	1.04 ± 0.12	0.975 ± 0.11	0.949 ± 0.096	0.938 ± 0.097	0.955 ± 0.094	0.953 ± 0.063
UniProt A1L0T0 and related entries	1.05 ± 0.022	1.04 ± 0.014	0.949 ± 0.036	0.986 ± 0.043	0.943 ± 0.04	0.924 ± 0.065	0.927 ± 0.025	0.915 ± 0.049
A0A0C4DGZ0 (UniProt P24928)	1.08 ± 0.063	1.14 ± 0.12	1.11 ± 0.12	1.17 ± 0.18	1.17 ± 0.18	1.13 ± 0.19	1.11 ± 0.16	1.06 ± 0.15
A0A087WYN9|Q7Z478 (UniProt Q7Z478)	1.34 ± 0.086	1.69 ± 0.26	1.66 ± 0.28	1.77 ± 0.29	1.8 ± 0.23	1.84 ± 0.27	1.86 ± 0.27	1.86 ± 0.19
A0A0B4J1W0|B4DDR8 and related entries (UniProt O75448)	1.04 ± 0.07	1.08 ± 0.08	1.09 ± 0.11	1.13 ± 0.15	1.23 ± 0.11	1.12 ± 0.19	1.21 ± 0.13	1.11 ± 0.25
A0A0C4DGX2|E7ESL0 and related entries (UniProt Q9NWU5)	1.23 ± 0.17	1.33 ± 0.36	1.35 ± 0.43	1.51 ± 0.47	1.47 ± 0.4	1.48 ± 0.48	1.46 ± 0.46	1.33 ± 0.45
A0A0U1RQQ9|Q6P3W7 (UniProt Q6P3W7)	1.03 ± 0.011	1.01 ± 0.022	1.006 ± 0.0076	0.955 ± 0.029	0.953 ± 0.058	0.952 ± 0.016	0.9734 ± 0.0085	0.943 ± 0.04
A0A0G2JNW7|Q9Y666 (UniProt Q9Y666)	1.04 ± 0.036	1.04 ± 0.032	1 ± 0.026	1.02 ± 0.032	1.04 ± 0.024	1.02 ± 0.036	1.06 ± 0.026	1.03 ± 0.036
A0A0C4DGH2|P62070 and related entries (UniProt P62070)	0.9883 ± 0.0072	0.967 ± 0.079	0.948 ± 0.11	0.903 ± 0.042	0.878 ± 0.043	0.888 ± 0.079	0.919 ± 0.061	0.862 ± 0.012
A0A0G2JIA5|A0A140TA36|A0A140TA45|Q5ST30-4 (UniProt Q5ST30)	1.03 ± 0.06	1.01 ± 0.046	0.992 ± 0.05	0.97 ± 0.027	0.977 ± 0.025	0.947 ± 0.045	0.97 ± 0.064	0.962 ± 0.039
A0A0A0MSK6|Q13017 and related entries (UniProt Q13017)	1.01 ± 0.028	1.04 ± 0.033	1.01 ± 0.076	0.99 ± 0.093	0.99 ± 0.052	0.997 ± 0.085	0.998 ± 0.078	0.979 ± 0.085
A0A0B4J1R6|P29401 and related entries (UniProt P29401)	0.962 ± 0.022	0.99 ± 0.031	0.922 ± 0.023	0.909 ± 0.0056	0.899 ± 0.013	0.9049 ± 0.0065	0.869 ± 0.033	0.863 ± 0.033
A0A087WXF8|A0A087WXU5|A0A0D9SEW3|E7EPF0 and related entries (UniProt Q9NP64)	0.925 ± 0.077	1.03 ± 0.025	0.919 ± 0.016	0.912 ± 0.06	0.88 ± 0.049	0.94 ± 0.05	0.879 ± 0.074	0.981 ± 0.074
A0A0A0MRV0|Q9P2E9 and related entries (UniProt Q9P2E9)	0.91 ± 0.035	0.946 ± 0.043	1.02 ± 0.016	0.987 ± 0.049	0.956 ± 0.05	1.02 ± 0.054	1.08 ± 0.02	1.13 ± 0.078
A0A0G2JIR1|A0A0G2JIS2|A0A0G2JK64|A2ABF8 and related entries (UniProt Q96KQ7)	1.19 ± 0.16	1.08 ± 0.12	1.17 ± 0.11	1.15 ± 0.085	1.26 ± 0.082	1.027 ± 0.0025	1.1 ± 0.052	1.18 ± 0.21
A0A087X1S3|Q7Z6Z7-2|Q7Z6Z7 (UniProt Q7Z6Z7)	1.03 ± 0.015	1.05 ± 0.011	1.02 ± 0.018	1.04 ± 0.026	1.04 ± 0.028	1.03 ± 0.048	1.04 ± 0.056	1.02 ± 0.037
A0A0A0MRR7|P09234 (UniProt P09234)	1.06 ± 0.017	1.19 ± 0.068	1.25 ± 0.068	1.36 ± 0.052	1.33 ± 0.11	1.56 ± 0.097	1.71 ± 0.2	1.82 ± 0.24
A0A0A0MRL6|F8W8M4 and related entries (UniProt O14639)	0.998 ± 0.047	1.03 ± 0.021	1.04 ± 0.025	1.05 ± 0.018	1.04 ± 0.022	1.11 ± 0.029	1.16 ± 0.017	1.22 ± 0.047
A0A0U1RQF0|P49327 (UniProt P49327)	1.06 ± 0.056	1.07 ± 0.097	0.992 ± 0.075	1.02 ± 0.12	1.02 ± 0.093	0.993 ± 0.12	0.964 ± 0.055	0.932 ± 0.057
UniProt A3KN83 and related entries	0.984 ± 0.056	1.02 ± 0.038	0.948 ± 0.022	0.9619 ± 0.0023	0.93 ± 0.021	0.925 ± 0.0014	0.906 ± 0.035	0.916 ± 0.043
A0A0J9YVP6|E9PQ56 and related entries (UniProt Q9UHX1)	1.03 ± 0.035	1.12 ± 0.062	1.1 ± 0.057	1.09 ± 0.042	1.06 ± 0.05	1.08 ± 0.06	1.08 ± 0.076	1.07 ± 0.083
UniProt A3KMH1 and related entries	1.09 ± 0.064	1.1 ± 0.1	0.992 ± 0.094	1.05 ± 0.14	1.06 ± 0.095	1.01 ± 0.12	1.01 ± 0.086	0.952 ± 0.089
A0A0C4DGX4|Q13616 (UniProt Q13616)	1.05 ± 0.041	1.07 ± 0.055	0.984 ± 0.044	0.974 ± 0.067	0.957 ± 0.049	0.98 ± 0.061	0.97 ± 0.035	0.918 ± 0.055
A0A0D9SFR6|Q86XP1 and related entries (UniProt Q86XP1)	1.02 ± 0.12	1.02 ± 0.13	1.01 ± 0.13	0.937 ± 0.067	0.938 ± 0.1	0.981 ± 0.14	1.01 ± 0.094	0.911 ± 0.092
A0A0C4DH01|Q9NVU0 and related entries (UniProt Q9NVU0)	1.02 ± 0.087	1.05 ± 0.059	1.09 ± 0.085	1.15 ± 0.095	1.13 ± 0.079	1.13 ± 0.11	1.17 ± 0.11	1.12 ± 0.17

Exported field by field: entries from further up
A0A0A0MSK6|Q13017 and related entries (UniProt Q13017)
  NP40-soluble protein abundance (concentration: 0.1mM): 1.01 ± 0.028; NP40-soluble protein abundance (concentration: 0.5mM): 1.04 ± 0.033; NP40-soluble protein abundance (concentration: 1mM): 1.01 ± 0.076; NP40-soluble protein abundance (concentration: 2mM): 0.99 ± 0.093; NP40-soluble protein abundance (concentration: 4mM): 0.99 ± 0.052; NP40-soluble protein abundance (concentration: 6mM): 0.997 ± 0.085; NP40-soluble protein abundance (concentration: 8mM): 0.998 ± 0.078; NP40-soluble protein abundance (concentration: 10mM): 0.979 ± 0.085
A0A0C4DGX4|Q13616 (UniProt Q13616)
  NP40-soluble protein abundance (concentration: 0.1mM): 1.05 ± 0.041; NP40-soluble protein abundance (concentration: 0.5mM): 1.07 ± 0.055; NP40-soluble protein abundance (concentration: 1mM): 0.984 ± 0.044; NP40-soluble protein abundance (concentration: 2mM): 0.974 ± 0.067; NP40-soluble protein abundance (concentration: 4mM): 0.957 ± 0.049; NP40-soluble protein abundance (concentration: 6mM): 0.98 ± 0.061; NP40-soluble protein abundance (concentration: 8mM): 0.97 ± 0.035; NP40-soluble protein abundance (concentration: 10mM): 0.918 ± 0.055
